Results: the supplement of paper PMC10849652
Some of the results follow.

Sequences of proteins named here, by UniProt entry; tags and fusion partners are left off. A change or cut given only in a name is not applied to a line headed by its entry.
UniProt Q9BV57: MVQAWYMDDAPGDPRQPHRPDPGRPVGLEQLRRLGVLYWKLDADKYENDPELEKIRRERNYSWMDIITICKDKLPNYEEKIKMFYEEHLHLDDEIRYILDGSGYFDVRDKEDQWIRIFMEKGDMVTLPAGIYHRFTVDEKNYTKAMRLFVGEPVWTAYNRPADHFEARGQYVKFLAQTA
UniProt Q9C0C7: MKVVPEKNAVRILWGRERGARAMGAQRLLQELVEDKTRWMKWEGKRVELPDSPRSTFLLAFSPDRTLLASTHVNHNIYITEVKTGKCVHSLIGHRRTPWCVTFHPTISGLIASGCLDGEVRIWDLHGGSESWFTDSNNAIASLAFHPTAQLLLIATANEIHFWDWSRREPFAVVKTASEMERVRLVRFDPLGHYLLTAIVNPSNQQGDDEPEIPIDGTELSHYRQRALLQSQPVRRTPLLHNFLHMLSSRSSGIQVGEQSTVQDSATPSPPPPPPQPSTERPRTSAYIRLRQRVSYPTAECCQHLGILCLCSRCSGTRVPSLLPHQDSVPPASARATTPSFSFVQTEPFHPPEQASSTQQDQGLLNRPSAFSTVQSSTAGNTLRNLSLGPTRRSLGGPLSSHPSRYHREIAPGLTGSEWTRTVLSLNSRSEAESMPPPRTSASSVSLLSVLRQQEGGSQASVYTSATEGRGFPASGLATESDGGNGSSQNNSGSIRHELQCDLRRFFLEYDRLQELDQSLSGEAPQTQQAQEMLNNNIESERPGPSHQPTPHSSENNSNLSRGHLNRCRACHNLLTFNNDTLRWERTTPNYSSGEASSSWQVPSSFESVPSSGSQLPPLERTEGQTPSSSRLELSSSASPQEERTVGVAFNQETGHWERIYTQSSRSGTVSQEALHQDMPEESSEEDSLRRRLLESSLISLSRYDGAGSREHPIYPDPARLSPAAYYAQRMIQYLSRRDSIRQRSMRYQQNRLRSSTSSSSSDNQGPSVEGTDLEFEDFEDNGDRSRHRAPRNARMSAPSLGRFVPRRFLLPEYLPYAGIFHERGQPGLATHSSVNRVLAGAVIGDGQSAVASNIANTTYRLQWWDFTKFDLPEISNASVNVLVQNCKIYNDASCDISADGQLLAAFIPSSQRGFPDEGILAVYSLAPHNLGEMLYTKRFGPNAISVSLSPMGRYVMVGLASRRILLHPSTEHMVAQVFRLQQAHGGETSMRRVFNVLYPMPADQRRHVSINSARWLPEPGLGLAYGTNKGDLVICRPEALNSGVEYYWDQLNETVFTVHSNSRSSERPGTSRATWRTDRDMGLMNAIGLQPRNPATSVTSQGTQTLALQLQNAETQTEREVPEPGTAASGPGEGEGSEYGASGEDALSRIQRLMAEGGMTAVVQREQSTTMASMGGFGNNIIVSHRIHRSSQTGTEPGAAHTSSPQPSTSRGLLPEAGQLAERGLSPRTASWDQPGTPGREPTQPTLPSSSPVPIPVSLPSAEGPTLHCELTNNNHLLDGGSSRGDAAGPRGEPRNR
UniProt Q6ULP2: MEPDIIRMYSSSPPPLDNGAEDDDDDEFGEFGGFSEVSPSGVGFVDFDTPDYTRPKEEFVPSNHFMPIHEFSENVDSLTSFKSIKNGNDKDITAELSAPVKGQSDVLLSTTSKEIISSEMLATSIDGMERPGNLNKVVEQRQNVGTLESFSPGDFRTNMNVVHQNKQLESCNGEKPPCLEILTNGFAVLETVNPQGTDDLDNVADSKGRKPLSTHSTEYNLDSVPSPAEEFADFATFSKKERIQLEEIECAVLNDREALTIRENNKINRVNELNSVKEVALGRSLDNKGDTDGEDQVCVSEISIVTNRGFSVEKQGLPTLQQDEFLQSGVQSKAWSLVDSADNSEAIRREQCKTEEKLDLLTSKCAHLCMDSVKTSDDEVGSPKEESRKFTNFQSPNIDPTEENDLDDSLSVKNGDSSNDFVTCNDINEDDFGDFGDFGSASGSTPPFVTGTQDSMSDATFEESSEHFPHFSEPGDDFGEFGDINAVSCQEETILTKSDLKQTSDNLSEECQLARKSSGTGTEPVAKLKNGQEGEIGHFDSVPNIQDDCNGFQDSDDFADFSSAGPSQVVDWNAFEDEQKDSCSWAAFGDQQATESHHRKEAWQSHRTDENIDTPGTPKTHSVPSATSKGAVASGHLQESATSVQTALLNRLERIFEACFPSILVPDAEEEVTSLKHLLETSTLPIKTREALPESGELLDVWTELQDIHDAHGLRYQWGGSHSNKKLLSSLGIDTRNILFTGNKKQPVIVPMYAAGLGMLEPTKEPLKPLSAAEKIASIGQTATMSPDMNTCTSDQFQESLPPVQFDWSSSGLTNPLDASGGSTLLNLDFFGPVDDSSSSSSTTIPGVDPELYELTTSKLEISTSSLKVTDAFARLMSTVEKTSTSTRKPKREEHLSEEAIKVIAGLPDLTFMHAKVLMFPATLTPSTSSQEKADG
UniProt Q8N142: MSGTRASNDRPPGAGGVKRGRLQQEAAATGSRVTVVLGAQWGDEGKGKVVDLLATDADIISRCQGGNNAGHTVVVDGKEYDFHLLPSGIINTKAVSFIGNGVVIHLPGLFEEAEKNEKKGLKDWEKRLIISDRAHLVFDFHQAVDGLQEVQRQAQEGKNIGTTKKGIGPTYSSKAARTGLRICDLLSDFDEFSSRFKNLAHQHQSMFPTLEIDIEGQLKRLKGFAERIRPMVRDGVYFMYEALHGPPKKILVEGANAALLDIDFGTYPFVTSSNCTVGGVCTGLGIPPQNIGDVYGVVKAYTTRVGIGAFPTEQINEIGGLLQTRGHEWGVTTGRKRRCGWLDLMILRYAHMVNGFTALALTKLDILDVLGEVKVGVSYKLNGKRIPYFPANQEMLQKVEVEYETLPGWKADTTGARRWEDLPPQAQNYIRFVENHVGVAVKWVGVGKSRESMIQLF
UniProt Q9UIJ7: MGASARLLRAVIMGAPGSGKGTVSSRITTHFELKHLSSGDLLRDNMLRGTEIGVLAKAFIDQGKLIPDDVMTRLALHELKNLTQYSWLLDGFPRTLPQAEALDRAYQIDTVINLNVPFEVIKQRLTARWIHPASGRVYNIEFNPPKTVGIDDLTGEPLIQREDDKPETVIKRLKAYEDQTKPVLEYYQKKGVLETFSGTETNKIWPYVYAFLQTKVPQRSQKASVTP
UniProt Q6P6C2: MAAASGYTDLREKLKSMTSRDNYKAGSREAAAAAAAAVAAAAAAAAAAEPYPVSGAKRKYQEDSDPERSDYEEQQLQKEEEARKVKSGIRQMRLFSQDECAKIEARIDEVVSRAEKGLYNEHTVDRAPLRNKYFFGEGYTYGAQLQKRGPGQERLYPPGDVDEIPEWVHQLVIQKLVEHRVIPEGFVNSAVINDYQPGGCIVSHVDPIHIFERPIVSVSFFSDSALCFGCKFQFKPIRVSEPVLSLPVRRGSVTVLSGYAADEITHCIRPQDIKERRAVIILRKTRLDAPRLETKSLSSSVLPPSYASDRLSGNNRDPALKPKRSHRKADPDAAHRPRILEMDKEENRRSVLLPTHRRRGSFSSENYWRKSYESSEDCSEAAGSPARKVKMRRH
UniProt Q6RW13: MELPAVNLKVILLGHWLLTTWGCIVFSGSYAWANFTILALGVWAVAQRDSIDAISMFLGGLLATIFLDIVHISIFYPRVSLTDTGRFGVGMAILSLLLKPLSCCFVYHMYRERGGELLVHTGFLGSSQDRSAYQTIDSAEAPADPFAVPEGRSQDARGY
UniProt Q92685: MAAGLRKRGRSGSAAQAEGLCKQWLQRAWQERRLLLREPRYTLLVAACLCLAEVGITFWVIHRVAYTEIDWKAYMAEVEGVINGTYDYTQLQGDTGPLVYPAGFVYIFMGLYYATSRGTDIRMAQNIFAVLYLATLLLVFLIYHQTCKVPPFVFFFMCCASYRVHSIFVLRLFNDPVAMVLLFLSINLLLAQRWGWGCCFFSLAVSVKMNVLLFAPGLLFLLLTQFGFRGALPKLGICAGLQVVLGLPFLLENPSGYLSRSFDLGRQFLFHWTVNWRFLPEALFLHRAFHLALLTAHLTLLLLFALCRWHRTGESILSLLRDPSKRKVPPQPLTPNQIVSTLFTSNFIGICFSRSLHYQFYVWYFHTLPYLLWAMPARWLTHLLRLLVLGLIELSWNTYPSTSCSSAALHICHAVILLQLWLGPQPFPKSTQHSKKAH
UniProt Q9UEY8: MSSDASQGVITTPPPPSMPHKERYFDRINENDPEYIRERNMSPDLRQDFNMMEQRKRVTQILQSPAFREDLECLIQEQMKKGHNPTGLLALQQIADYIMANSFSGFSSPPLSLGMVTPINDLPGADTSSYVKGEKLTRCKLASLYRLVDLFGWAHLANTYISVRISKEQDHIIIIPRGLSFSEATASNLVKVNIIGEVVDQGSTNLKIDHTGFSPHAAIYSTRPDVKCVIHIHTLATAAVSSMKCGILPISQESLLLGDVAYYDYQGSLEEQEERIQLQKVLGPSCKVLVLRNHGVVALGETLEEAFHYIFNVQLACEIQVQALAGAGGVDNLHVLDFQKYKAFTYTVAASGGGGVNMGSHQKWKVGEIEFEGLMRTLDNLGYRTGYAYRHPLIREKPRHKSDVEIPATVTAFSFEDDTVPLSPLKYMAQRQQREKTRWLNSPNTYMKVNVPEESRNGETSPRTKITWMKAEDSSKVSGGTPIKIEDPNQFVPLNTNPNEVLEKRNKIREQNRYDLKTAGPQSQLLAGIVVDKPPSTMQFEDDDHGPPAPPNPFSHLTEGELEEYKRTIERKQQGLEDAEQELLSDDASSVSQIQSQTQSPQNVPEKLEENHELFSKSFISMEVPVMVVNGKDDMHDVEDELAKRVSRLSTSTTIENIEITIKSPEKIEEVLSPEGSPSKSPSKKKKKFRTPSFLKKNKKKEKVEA
UniProt Q9H6U8: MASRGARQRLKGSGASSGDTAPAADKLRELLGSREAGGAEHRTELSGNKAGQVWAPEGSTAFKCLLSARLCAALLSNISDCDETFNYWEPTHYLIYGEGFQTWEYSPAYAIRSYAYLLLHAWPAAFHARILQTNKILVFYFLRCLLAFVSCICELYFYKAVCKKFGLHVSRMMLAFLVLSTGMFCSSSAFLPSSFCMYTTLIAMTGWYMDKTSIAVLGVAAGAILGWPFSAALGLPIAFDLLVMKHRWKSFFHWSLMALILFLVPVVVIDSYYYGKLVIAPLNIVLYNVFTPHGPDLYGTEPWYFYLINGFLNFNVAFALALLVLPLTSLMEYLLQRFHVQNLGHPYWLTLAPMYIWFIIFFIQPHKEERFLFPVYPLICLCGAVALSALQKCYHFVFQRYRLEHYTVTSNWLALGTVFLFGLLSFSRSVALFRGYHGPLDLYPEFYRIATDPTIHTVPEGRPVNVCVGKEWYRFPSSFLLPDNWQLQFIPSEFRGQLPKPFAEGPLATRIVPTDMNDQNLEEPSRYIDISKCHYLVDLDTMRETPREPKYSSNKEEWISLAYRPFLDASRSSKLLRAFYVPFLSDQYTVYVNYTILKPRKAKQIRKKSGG
UniProt Q86V24: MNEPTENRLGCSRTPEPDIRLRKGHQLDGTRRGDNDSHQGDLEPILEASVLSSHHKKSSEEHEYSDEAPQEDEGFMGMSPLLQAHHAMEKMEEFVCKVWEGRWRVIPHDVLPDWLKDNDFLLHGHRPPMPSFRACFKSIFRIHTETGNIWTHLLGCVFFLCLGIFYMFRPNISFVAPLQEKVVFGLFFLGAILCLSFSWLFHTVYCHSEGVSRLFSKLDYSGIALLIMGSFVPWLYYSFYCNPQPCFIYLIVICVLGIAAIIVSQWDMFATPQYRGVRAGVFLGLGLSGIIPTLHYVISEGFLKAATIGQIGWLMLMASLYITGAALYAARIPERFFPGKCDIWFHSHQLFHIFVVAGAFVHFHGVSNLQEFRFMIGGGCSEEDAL
UniProt O15120: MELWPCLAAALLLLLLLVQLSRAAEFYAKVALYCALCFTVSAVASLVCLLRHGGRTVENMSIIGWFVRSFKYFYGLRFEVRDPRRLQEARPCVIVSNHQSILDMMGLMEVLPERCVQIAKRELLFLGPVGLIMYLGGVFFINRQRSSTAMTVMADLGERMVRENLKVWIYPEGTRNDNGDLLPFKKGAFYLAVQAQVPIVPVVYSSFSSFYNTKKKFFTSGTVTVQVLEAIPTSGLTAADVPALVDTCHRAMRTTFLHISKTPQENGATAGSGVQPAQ
UniProt Q9UM13, whole entry, looked up: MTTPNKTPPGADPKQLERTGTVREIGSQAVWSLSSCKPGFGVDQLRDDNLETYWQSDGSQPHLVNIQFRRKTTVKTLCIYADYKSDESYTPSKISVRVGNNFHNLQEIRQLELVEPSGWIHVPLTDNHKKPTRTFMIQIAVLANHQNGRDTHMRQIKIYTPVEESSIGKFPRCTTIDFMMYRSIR
UniProt P13716: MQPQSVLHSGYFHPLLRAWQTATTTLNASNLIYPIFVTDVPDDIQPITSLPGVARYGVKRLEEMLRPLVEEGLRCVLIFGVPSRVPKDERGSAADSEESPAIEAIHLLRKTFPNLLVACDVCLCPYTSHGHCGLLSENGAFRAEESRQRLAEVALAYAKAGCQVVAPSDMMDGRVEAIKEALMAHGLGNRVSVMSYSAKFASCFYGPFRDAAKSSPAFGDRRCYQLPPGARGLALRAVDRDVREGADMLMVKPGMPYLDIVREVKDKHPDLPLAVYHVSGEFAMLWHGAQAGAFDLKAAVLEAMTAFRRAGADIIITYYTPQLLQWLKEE

How the values were obtained:
Assay in all cases: log2 fold change, soluble protein after heating vs DMSO (PISA); higher = thermal stabilisation; K562 cells, 10 uM, 30 min; active = over 0.2 and 3.5 SD of the protein, either way, in both replicates (recomputed)
[1] = compound: C1=CC=C(C=C1)[C@H](COC2=CC3=C(C=C2)NC(=O)N3)NC(=O)C4=CC=CN(C4=O)CC5=CC(=C(C=C5)F)F
Method in brief: (§1)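 K562 cells (2×10^6 cells/mL) were treated with 10 μM compound for 30 min, and aliquots were heated for 3 min over 48°C-58°C. Pooled aliquots were extracted in PBS with 0.5% NP-40 at 4°C, and the supernatant after 21,000xg for 90 min was measured by TMTpro 16plex LC-MS/MS with channel sums equalised. Reported thermal stability, relative to control samples and from duplicates, is a log2 fold change.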

[2] = compound: CC1=C(SC2=C1C(=N[C@H](C3=NN=C(N32)C)CC(=O)N)C4=CC=C(C=C4)Cl)C
Method in brief: as §1

[3] = compound: CC1=C2C(=CC=C1)N=C(N(C2=O)C3=CC=CC=C3C)CN4C=NC5=C(N=CN=C54)N
Method in brief: as §1

[4] = compound: Cc1sc2c(c1C)C(c1ccc(Cl)cc1)=N[C@@H](CC(=O)OC(C)(C)C)c1nnc(C)n1-2
Method in brief: as §1

[5] = compound: c1ccc([C@@H]2C[C@H]2NC2CCNCC2)cc1
Method in brief: as §1

Measured: log2 fold change

ALYREF (UniProt Q86V81)
inactive: [1] 0.088 | [2] -0.157 | [3] -0.113 | [4] 0.204 | [5] 0.072

ALG6 (UniProt Q9Y672)
inactive: [1] -0.034 | [2] 0.047 | [3] 0.014 | [4] -0.072 | [5] 0.043

AK6 (UniProt Q9Y3D8)
inactive: [1] -0.043 | [2] 0.042 | [3] 0.2 | [4] -0.014 | [5] -0.008

AFG1L (UniProt Q8WV93)
inactive: [1] 0.025 | [2] 0.096 | [3] -0.008 | [4] -0.074 | [5] -0.129

ADI1 (UniProt Q9BV57)
inactive: [1] -0.024 | [2] 0.005 | [3] 0.15 | [4] 0.001 | [5] 0.022

AMBRA1 isoform 5 (UniProt Q9C0C7)
inactive: [1] -0.133 | [2] -0.051 | [3] -0.302 | [4] 0.183 | [5] 0.085

AFTPH isoform 9 (UniProt Q6ULP2)
inactive: [1] -0.041 | [2] 0 | [3] 0.046 | [4] -0.066 | [5] -0.022

ALG8 (UniProt Q9BVK2)
inactive: [1] 0.063 | [2] 0.093 | [3] 0 | [4] -0.124 | [5] -0.053

ADSS1 (UniProt Q8N142)
inactive: [1] -0.004 | [2] 0.076 | [3] 0.062 | [4] 0.057 | [5] -0.036

Reprinted from above (5 entries):
AFG1L (UniProt Q8WV93)
inactive: [1] 0.025 | [2] 0.096 | [3] -0.008 | [4] -0.074 | [5] -0.129

ADI1 (UniProt Q9BV57)
inactive: [1] -0.024 | [2] 0.005 | [3] 0.15 | [4] 0.001 | [5] 0.022

AMBRA1 isoform 5 (UniProt Q9C0C7)
inactive: [1] -0.133 | [2] -0.051 | [3] -0.302 | [4] 0.183 | [5] 0.085

AFTPH isoform 9 (UniProt Q6ULP2)
inactive: [1] -0.041 | [2] 0 | [3] 0.046 | [4] -0.066 | [5] -0.022

ALG8 (UniProt Q9BVK2)
inactive: [1] 0.063 | [2] 0.093 | [3] 0 | [4] -0.124 | [5] -0.053

(list continues)

ALDOA isoform 2 (UniProt P04075)
inactive: [1] 0.003 | [2] -0.007 | [3] -0.033 | [4] -0.004 | [5] 0.003

AK3 (UniProt Q9UIJ7)
inactive: [1] 0.005 | [2] 0.036 | [3] 0.015 | [4] -0.02 | [5] 0.009

ALKBH5 (UniProt Q6P6C2)
inactive: [1] 0.065 | [2] -0.002 | [3] 0.085 | [4] -0.024 | [5] 0.028

AFP (UniProt P02771)
inactive: [1] -0.001 | [2] -0.017 | [3] 0.053 | [4] 0.119 | [5] 0.143

AGTRAP (UniProt Q6RW13)
inactive: [1] 0.001 | [2] 0 | [3] 0.022 | [4] -0.057 | [5] 0.073

ALG3 (UniProt Q92685)
inactive: [1] -0.061 | [2] 0.019 | [3] 0.072 | [4] 0.054 | [5] -0.026

ADD3 (UniProt Q9UEY8)
inactive: [1] 0.019 | [2] 0.034 | [3] 0.023 | [4] -0.002 | [5] 0.029

AK2 isoform 2 (UniProt P54819)
inactive: [1] 0.006 | [2] 0.002 | [3] 0.012 | [4] 0.003 | [5] 0.026

AKR7A2 (UniProt O43488)
inactive: [1] -0.033 | [2] 0.04 | [3] -0.022 | [4] -0.04 | [5] -0.095

ALG9 isoform 3 (UniProt Q9H6U8)
inactive: [1] -0.028 | [2] 0.031 | [3] -0.017 | [4] -0.023 | [5] -0.028

ADIPOR2 (UniProt Q86V24)
inactive: [1] 0.087 | [2] 0.005 | [3] 0.069 | [4] 0.021 | [5] 0.136

AGPAT2 (UniProt O15120)
inactive: [1] -0.07 | [2] 0.066 | [3] -0.07 | [4] -0.143 | [5] 0.044

ANAPC10 (UniProt Q9UM13)
inactive: [1] 0.031 | [2] 0.014 | [3] -0.016 | [4] -0.026 | [5] 0.016

ALAD isoform 2 (UniProt P13716)
inactive: [1] 0.002 | [2] -0.049 | [3] -0.035 | [4] -0.005 | [5] 0.061

AHNAK (UniProt Q09666)
inactive: [1] 0.039 | [2] -0.015 | [3] 0.024 | [4] 0.017 | [5] 0.057
